Taken from: PubChem BioAssay AID686938 (Drosophila RNAi Screening Center, 2013)
The deposit covers about 23,000 reagents; below is an unselected part of those with a known target gene and a result. Over the whole deposit, 75 (0.33%) were called active. 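Raw plate signals without normalisation; calls rest on plate z-scores that were not deposited; ratio present for only 364 wells.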 Unmarked entries are inactive. Reagents against one gene are numbered here. Names joined by + are all predicted targets of the reagent. Reagent sequences are not shown. The record does not give: the dose of the treatment.

- Screen: 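Knock-downs reducing store-operated calcium influx in Drosophila cells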 (primary screen)
- System: Drosophila S2R+ cells
- Reagents: long dsRNA against Drosophila genes, about 0.25 µg dsRNA per well, roughly 10,000 cells
- Time to read-out: 5 days of knock-down before the calcium assay
- Treatment: thapsigargin (SERCA pump blocker) to empty calcium stores; entry signal taken 4 min after adding it
- Read-out: 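Per-well fluo-4 fluorescence in two replicates, unnormalised, measured in resting cells and 4 min after store depletion by the SERCA blocker thapsigargin; ratio of the two present in few wells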
- Direction: calcium entry signal: higher = stronger calcium signal after store depletion; entry to resting ratio: higher = more calcium entry relative to resting level; resting calcium signal: higher = higher resting calcium signal
- Rule for the call: 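Called when the plate z-score of the entry-to-rest ratio, mean of duplicates, falls below −3; wells with low overall dye signal (Fmax z below −2) or more than five off-targets excluded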
- Meaning of the calls: active = strongly reduced calcium entry; inactive = no strong reduction

| Target gene | reagent | calcium entry signal, replicate 1 (fluorescence units) | calcium entry signal, replicate 2 (fluorescence units) | entry to resting ratio | resting calcium signal, replicate 1 (fluorescence units) | resting calcium signal, replicate 2 (fluorescence units) |
| --- | --- | --- | --- | --- | --- | --- |
| vito | 1 | 3.81e7 | 3.43e7 | – | 2.26e7 | 1.78e7 |
| CG33061 | 1 | 5.41e7 | 6.97e7 | – | 2.46e7 | 2.72e7 |
| CG33061 | 2 | 3.73e7 | 4.06e7 | – | 2.21e7 | 1.77e7 |
| CG40005 (retired record) + cta | 1 | 3.61e7 | 6.23e7 | – | 1.60e7 | 2.52e7 |
| fan | 1 | 3.47e7 | 4.05e7 | – | 1.54e7 | 1.87e7 |
| Raf | 1 | 3.74e7 | 3.73e7 | 2 | 1.89e7 | 1.74e7 |
| Raf | 2 | 3.58e7 | 3.48e7 | – | 1.80e7 | 1.71e7 |
| mib2 | 1 | 4.38e7 | – | – | 2.20e7 | – |
| CG32507 | 1 | 3.39e7 | 3.12e7 | – | 1.65e7 | 1.58e7 |
| CG7213 | 1 | 2.13e7 | 5.25e7 | – | 1.05e7 | 2.26e7 |
| CG4364 | 1 | 2.63e7 | – | – | 1.51e7 | – |
| CG15772 | 1 | 2.97e7 | 4.34e7 | – | 1.47e7 | 1.89e7 |
| Utx | 1 | 4.09e7 | 4.77e7 | – | 1.82e7 | 1.86e7 |
| Lapsyn | 1 | 3.92e7 | – | – | 2.00e7 | – |
| side-III | 1 | 4.69e7 | 3.05e7 | – | 2.24e7 | 1.54e7 |
| side-III | 2 | 4.63e7 | 3.51e7 | – | 2.48e7 | 1.78e7 |
| side-III | 3 | 4.54e7 | 3.08e7 | – | 2.18e7 | 1.52e7 |
| Pss | 1 | 2.73e7 | 3.98e7 | – | 1.28e7 | 1.70e7 |
| CG31715 | 1 | 2.75e7 | 3.05e7 | – | 1.51e7 | 1.49e7 |
| CG8230 | 1 | 3.10e7 | 3.86e7 | – | 1.49e7 | 1.83e7 |
| CG3457 | 1 | 2.71e7 | 4.32e7 | – | 1.25e7 | 1.86e7 |
| Spn85F | 1 | 4.53e7 | 1.82e7 | – | 2.10e7 | 1.04e7 |
| CG5466 | 1 | 1.69e7 | 2.11e7 | – | 1.18e7 | 1.24e7 |
| CG5466 | 2 | 3.87e7 | 4.47e7 | – | 1.77e7 | 1.81e7 |
| cv | 1 | 3.23e7 | 3.86e7 | – | 1.50e7 | 1.79e7 |
| Adgf-E | 1 | 2.54e7 | 4.01e7 | – | 1.44e7 | 1.77e7 |
| Nhe2 | 1 | 4.38e7 | 4.76e7 | – | 2.04e7 | 2.02e7 |
| Nhe2 | 2 | 4.40e7 | 4.58e7 | – | 2.16e7 | 1.98e7 |
| CG2930 | 1 | 4.03e7 | 4.78e7 | – | 1.77e7 | 2.19e7 |
| ACXE | 1 | 5.10e7 | 3.03e7 | – | 2.10e7 | 1.42e7 |
| Adh + Adhr | 1 | 5.22e7 | – | – | 2.33e7 | – |
| Adh + Adhr | 2 | 5.14e7 | 2.99e7 | – | 2.16e7 | 1.45e7 |
| CG30265 | 1 | 2.89e7 | 3.05e7 | – | 1.39e7 | 1.33e7 |
| unc-45 | 1 | 5.67e7 | 3.57e7 | – | 2.74e7 | 1.69e7 |
| Smug | 1 | 3.61e7 | 5.49e7 | – | 1.81e7 | 6.53e7 |
| spir | 1 | 3.93e7 | 4.31e7 | – | 1.89e7 | 1.78e7 |
| CG7878 | 1 | 4.87e7 | 4.05e7 | – | 2.64e7 | 2.15e7 |
| CG15894 | 1 | 2.29e7 | 3.32e7 | – | 1.14e7 | 1.49e7 |
| CG15894 | 2 | 2.06e7 | 3.38e7 | – | 1.18e7 | 1.55e7 |
| GluRIID | 1 | 3.71e7 | 3.52e7 | – | 4.55e7 | 1.54e7 |
